Measurements from PubChem BioAssay AID1487 (National Center for Advancing Translational Sciences (NCATS), 2009).
This is one part of the list. Further columns of the screen follow, without active or inactive calls. Most of these compounds were active or inconclusive in the main read-out, so they are no random draw. Words in brackets tell the shape of the fitted curve; partial curves, single points and poor fits give uncertain potencies.

Test: qHTS Assay for Modulators of Lamin A Splicing
Details: HeLa LMNA splicing GFP/RFP minigene ratio, 48 h
Summary of the method: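 S3 HeLa cells stably expressing lamin A-EGFP splicing minigene plus DsRed2, 600 cells/well, 48 h compound exposure at 37C. Laser-scanning cytometry; analysed as GFP (500-530 nm)/RFP (575-640 nm) total intensity ratio; 0.5% DMSO vehicle.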

[1] = measured here: GFP splicing reporter channel
[2] = measured here: RFP viability control channel

Row | SMILES | AC50 [1] | AC50 [2]
1 | Cc1ccc(-n2c(C)cc(/C=N/Nc3ccc([N+](=O)[O-])cn3)c2C)c(C)c1 | 7.94 µM [rising, partial curve, poor fit] | 12.6 µM [rising, partial curve]
2 | Oc1ccccc1-c1cc(-c2cccc(F)c2)n[nH]1 | 10 µM [rising, partial curve] | 11.2 µM [rising, partial curve]
3 | COc1ccc(CCNC(=O)COc2ccc(-c3ccc(C)cc3)cc2)cc1OC | 1.26 µM [rising, full curve] | 1.41 µM [rising, full curve]
4 | Cc1ccsc1C1CC(=O)NC2=C1C(=O)CC(C)(C)C2 (centres undefined) | – | 20 µM [rising, partial curve, poor fit]
5 | Cc1cc(=O)oc2c1ccc1oc(/C(=N/O)c3ccccc3)c(C)c12 | – | 14.1 µM [rising, partial curve]
6 | Cc1cccnc1Nc1nc(-c2ccc(O)cc2O)cs1 | 0.316 µM [falling, single point] | 31.6 µM [rising, single point]
7 | Cc1nc(-c2ccccc2)sc1-c1ccnn1C | – | 1.41 µM [falling, single point]
8 | c1ccc(CSc2nnc(-c3c[nH]c4ccccc34)o2)cc1 | – | 17.8 µM [rising, single point]
9 | c1ccc(-c2nc(N3CCCCC3)nc3ccccc23)cc1 | – | 0.282 µM [rising, partial curve, poor fit]
10 | COc1ccc(/C=C2\OC(=S)N(C)C2=O)cc1 | 11.2 µM [rising, single point] | 11.2 µM [rising, partial curve]
11 | Cc1c(C(=O)NCc2ccc3c(c2)OCO3)oc2ccc(Br)cc12 | – | 12.6 µM [rising, single point]
12 | CCOc1ccc(C2CC(=O)NC3=C2C(=O)CCC3)cc1Cl (centres undefined) | – | 8.91 µM [rising, partial curve]
13 | O=c1c2ccccc2nc2ccc(NCc3ccco3)nn12 | 11.2 µM [falling, partial curve, poor fit] | 3.98 µM [falling, full curve, poor fit]
14 | CNc1ccc(Br)cc(C(=O)/C=C/c2ccc3c(c2)OCO3)c1=O | 25.1 µM [falling, single point] | 25.1 µM [falling, single point]
15 | Cc1nn(CC(=O)NCc2ccc(Cl)cc2)c(C)c1[N+](=O)[O-] | 20 µM [falling, partial curve, poor fit] | 7.94 µM [falling, partial curve]
16 | O=C1C=CC(O)(c2cc(=O)c3c(O)cc(O)cc3o2)C=C1 | – | 31.6 µM [rising, single point]
17 | COc1cccc(NC(=O)CSc2nc3ccccc3c(=O)n2CCCC(=O)N2CCCC2)c1 | 20 µM [rising, partial curve, poor fit] | 15.8 µM [rising, partial curve]
18 | C/C(=N\NC(=O)COc1ccc(C(C)(C)C)cc1)c1cc2ccccc2o1 | 3.55 µM [rising, partial curve, poor fit] | 25.1 µM [rising, single point]
19 | COc1ccc(C(C(=O)NC2CCCCC2)N(C(=O)CCl)c2cccc(Cl)c2)cc1 (centres undefined) | 14.1 µM [falling, partial curve] | 25.1 µM [falling, single point]
20 | COc1ccc(CC(=O)Nc2ccc3c(c2)CCC3)cc1OC | 6.31 µM [rising, full curve, poor fit] | 7.08 µM [rising, partial curve]
21 | CN(CC(=O)Nc1ccc(Cl)c(Cl)c1)C(=O)C12CC3CC(CC(C3)C1)C2 | 8.91 µM [rising, partial curve] | 14.1 µM [rising, partial curve]
22 | COc1cc(C2CC(=O)c3c([nH]c(C(=O)OCCOC(C)C)c3C)C2)cc(OC)c1OC (centres undefined) | 3.55 µM [rising, full curve] | 6.31 µM [rising, full curve]
23 | O=C(C[n+]1ccc(Cc2ccccc2)cc1)Nc1ccc([N+](=O)[O-])cc1Cl | 6.31 µM [falling, single point] | –
24 | Cc1nnc2sc(-c3cccc4ccccc34)nn12 | 10 µM [falling, partial curve, poor fit] | 11.2 µM [falling, partial curve, poor fit]

Compounds from the list above that contain bromine:
Row | SMILES | AC50 [1] | AC50 [2]
11 | Cc1c(C(=O)NCc2ccc3c(c2)OCO3)oc2ccc(Br)cc12 | – | 12.6 µM [rising, single point]
14 | CNc1ccc(Br)cc(C(=O)/C=C/c2ccc3c(c2)OCO3)c1=O | 25.1 µM [falling, single point] | 25.1 µM [falling, single point]
